Test results taken from PubChem BioAssay AID1347075 (National Center for Advancing Translational Sciences (NCATS), 2019).
Out of some 400,000 compounds screened, about 5,500 (1.4%) were called active. This list was built around the results that the source calls inconclusive (neither active nor inactive); the mix of calls is not that of the screen. The call rests on the fitted dose curve; in most records, active means well fitted cell-killing curve with a large enough effect; inconclusive means small, poorly fitted or top-dose-only effect, or effect the other way; inactive means flat fitted curve, though single readings scatter. Potencies beside an inconclusive call are fits to weak or partial responses and may not hold up.

Experiment: qHTS assay for MDR1-selective chemotherapeutics: Primary screen using the parental adenocarcinoma cell KB-3-1; further: nearly all actives have a fitted effect of over 60% in size
Conditions: KB-3-1 viability, CellTiter-Glo ATP luminescence, 72 h; activity change, negative = cytotoxic: at 46.1 µM (top of the series)
In short: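 Here the drug-naive KB-3-1 line serves as comparator for MDR sub-line selectivity; cells received compound titrations, 72 h at 37 °C, then CellTiter-Glo readout.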
On the % scale 0 is the no-effect control and ±100 the full control effect; potency means the concentration at half of the fitted maximal effect.

Row | SMILES | Potency | activity change, negative = cytotoxic
1 | CCOc1ccc(-n2nc3c(Cl)nnc(C)c3c2C)cc1 | inconclusive: 0.206 µM [rising, partial curve, poor fit] | 
2 | O=C(NC(=S)Nc1cccnc1)c1cc2ccccc2o1 |  | inactive: 4.26%
3 | O=C(NC(=S)NNC(=O)c1ccccc1O)c1ccc([N+](=O)[O-])cc1 | inconclusive: 29.1 µM [cytotoxic, single point] | 
4 | COc1cc(OC)c(NC2(c3ccccc3)C(=O)c3ccccc3C2=O)cc1Cl |  | inactive: 0.234%
5 | CC(=O)Oc1ccc([C@@H]2COc3c(ccc4c3C=CC(C)(C)O4)C2)c(OC(C)=O)c1 | inconclusive: 29.1 µM [cytotoxic, single point] | 
6 | CC(=O)Nc1ccc(NC(=O)c2nc(S(=O)(=O)Cc3cccc(C)c3)ncc2Cl)cc1 | active: 5.17 µM | 
7 | COc1cc(/C=c2\[nH]c(=O)/c(=C/c3cc(OC)c(OC)c(OC)c3)[nH]c2=O)cc(OC)c1OC | inconclusive: 18.4 µM [rising, partial curve] | 
8 | O=C(CNCc1ccccc1)Nc1ccc(Cl)cc1 | active: 10.3 µM | 
9 | Cc1ccc(S(=O)(=O)N(C)CC(=O)Nc2ccccc2N2CCCC2)cc1 |  | inactive: 0.176%
10 | COc1ccc(-c2csc3nc(-c4cccnc4)nc(N4CCC(C(N)=O)CC4)c23)cc1OC | inconclusive: 29.1 µM [cytotoxic, single point] | 
11 | CC1CCc2c(sc3nc(C4CC4)nc(N4CCN(C(=O)c5ccco5)CC4)c23)C1 (stereo not drawn) | inconclusive: 29.1 µM [cytotoxic, single point] | 
12 | Fc1ccc(N2CCN(c3ncnc4nc[nH]c34)CC2)cc1 |  | inactive: -67.7%
13 | NC1=NC[C@H](Cc2ccccc2)N1CCc1cccc(F)c1 | inconclusive: 2.59 µM [cytotoxic, partial curve, poor fit] | 
14 | CCc1ccc(CCC(=O)Nc2ccc(S(N)(=O)=O)cc2)o1 |  | inactive: 11%
15 | COc1ccc(NS(=O)(=O)c2ccc3c(c2)CCN3C(=O)CCC(=O)O)cc1Cl |  | inactive: 8.75%
16 | Cc1c(NC2(c3nnnn3-c3ccc(Br)cc3)CCCCC2)c(=O)n(-c2ccccc2)n1C |  | inactive: 8.8%
17 | CC(C)(C)n1ncc2c(=O)n(CC(=O)NCc3ccccc3)cnc21 | active: 7.31 µM | 
18 | COc1ccc(S(=O)(=O)NCCCO)cc1-c1nnc2c3ccccc3c(C)nn12 | inconclusive: 23.1 µM [rising, partial curve, poor fit] | 
19 | Cc1ccc2sc3ccc(NC(=O)c4ccccc4Cl)cc3c(=O)c2c1 | inconclusive: 32.6 µM [cytotoxic, single point] | 
20 | CCc1ccc(-n2c(=O)c3sc4ccccc4c3n(CC(=O)NC3CCCCC3)c2=O)cc1 |  | inactive: 1.05%
21 | CC(=O)c1c(C)[nH]c(C(=O)OCc2cccc(Cl)c2)c1C | inconclusive: 16.4 µM [cytotoxic, single point] | 
22 | Brc1cccc(-c2nc(-c3ccncc3)no2)c1 | inconclusive: 29.1 µM [cytotoxic, single point] | 
23 | FC1(F)Oc2ccc(-c3ccc4ncnc(NCc5cccs5)c4c3)cc2O1 | inconclusive: 2.59 µM [cytotoxic, partial curve, poor fit] | 

Row | SMILES | Potency | activity change, negative = cytotoxic
24 | O=C(CCNS(=O)(=O)c1ccc(Br)cc1)NCCCSc1ccccc1 | inconclusive: 14.6 µM [cytotoxic, partial curve, poor fit] | 
25 | O=[N+]([O-])c1ccc(NN=Cc2cc(Br)ccc2O)nc1 |  | inactive: -11%
26 | Cc1[nH]n(-c2ccc([N+](=O)[O-])cc2)c(=O)c1C=NCC1CCCO1 (stereo not drawn) | inconclusive: 9.2 µM [cytotoxic, partial curve, poor fit] | 
27 | COc1cccc(/C=N/Nc2ncnc3c2ncn3Cc2ccccc2)c1O | inconclusive: 4.61 µM [cytotoxic, full curve, poor fit] | 
28 | CCS(=O)(=O)c1ncc(Cl)c(C(=O)Nc2ccc(C)cc2)n1 | inconclusive: 29.1 µM [cytotoxic, partial curve, poor fit] | 
29 | COc1cccc(/C=N/NC(=O)CNC(=O)c2ccco2)c1O |  | inactive: -10.9%
30 | CC(C)(C)OC(=O)NCCCCCNC(=O)c1[nH]cnc1C(=O)Nc1ccc(Cl)cc1 | inconclusive: 16.4 µM [cytotoxic, single point] | 
31 | CCN(CC)c1ccc(/C=N/NC(=O)CCC(=O)NCc2ccccc2)c(O)c1 | inconclusive: 8.2 µM [cytotoxic, partial curve, poor fit] | 
32 | C[N+]1(CCCCSc2ccc(O)cc2)CCCCC1 | active: 18.4 µM | 
33 | CCOC(=O)C1(CCOc2ccccc2)CCN(Cc2cccc(OC)c2)CC1 | inconclusive: 10.3 µM [cytotoxic, partial curve] | 
34 | COC(=O)[C@@]1(Cc2ccc(OC)cc2)[C@H]2c3cc(C(=O)N4CCCC4)n(Cc4ccc(C)c(F)c4F)c3C[C@H]2CN1C(=O)c1ccccc1 | inconclusive: 18.4 µM [cytotoxic, single point] | 
35 | c1ccc(-c2noc(-c3ccc4c(c3)OCO4)n2)nc1 | active: 4.61 µM | 
36 | CCOc1cc(/C=N/NC(=O)c2ccccc2-n2cccc2)ccc1O | inconclusive: 29.1 µM [cytotoxic, single point] | 
37 | COc1cccc(-c2cnc3c(NC=O)cc(-c4ccc(S(C)(=O)=O)cc4)cn23)c1 |  | inactive: -26.6%
38 | Cc1ccc(C)c(CN2CCC(CNC(=O)Nc3ccc(Br)cc3F)CC2)c1 | inconclusive: 29.1 µM [cytotoxic, single point] | 
39 | CC1CCCCN1CCNC(=O)c1ccc2c(c1)N(Cc1cccc(Cl)c1)C(=O)c1ccccc1S2=O (stereo not drawn) | inconclusive: 20.6 µM [cytotoxic, single point] | 
40 | O=C(Cn1c(=O)oc2cc(S(=O)(=O)N3CCCCCC3)ccc21)NCc1ccccc1Cl | inconclusive: 25.9 µM [cytotoxic, single point] | 
41 | Clc1cccc(-c2nc(-c3ccc(-c4nn[nH]n4)cc3)no2)c1 |  | inactive: 2.78%
42 | N#C/C(=C/c1ccc(N2CCCC2)c([N+](=O)[O-])c1)c1nc2ccccc2[nH]1 |  | inactive: 3.74%
43 | COC(=O)[C@]1(Cc2ccccc2)N[C@H](CN(C)C(=O)C2CCCCC2)[C@@H]2C(=O)N(C)C(=O)[C@@H]21 | inconclusive: 32.6 µM [rising, single point] | 
44 | CCCCCC(=O)N1CCCC(c2nc(-c3ccc(OC)cc3)no2)C1 (stereo not drawn) | inconclusive: 20.6 µM [cytotoxic, partial curve] | 
45 | COc1cccc(NC(=S)N(Cc2ccc(C(=O)O)cc2)Cc2ccc(OC)c(OC)c2)c1 | inconclusive: 7.31 µM [cytotoxic, partial curve, poor fit] | 
46 | Cc1c(Cc2ccccc2)sc(NC(=O)/C=C/c2cccc3ccccc23)c1C(N)=O | active: 9.2 µM | 

Row | SMILES | Potency | activity change, negative = cytotoxic
47 | COc1cccc(NC(=O)COc2ccc(C(=O)N3CCN(C)CC3)cc2)c1 |  | inactive: 12.3%
48 | Clc1cccc(CNCCCSc2ncccn2)c1Cl |  | inactive: 22.9%
49 | CCOc1ccc(C(=O)c2cn(CC(=O)Nc3ccc(F)cc3)c3cc4c(cc3c2=O)OCO4)cc1 | inconclusive: 29.1 µM [cytotoxic, single point] | 
50 | Cc1ccc(OCCN2CCC2(C)C(=O)Nc2ccc3c(c2)OCO3)cc1 (stereo not drawn) | inconclusive: 29.1 µM [cytotoxic, single point] | 
51 | N#C/C(=C\c1ccc(O)c(Br)c1)C(=O)NCc1ccccc1 |  | inactive: -7.7%
52 | CCN(CC(=O)Nc1ccc2c(c1)OCCO2)C(=O)c1cc(=O)[nH]c2ccccc12 | inconclusive: 18.4 µM [rising, single point] | 
53 | O=C1OCC2=C1C(c1ccc(Cl)cc1)c1cc3c(cc1O2)OCO3 (stereo not drawn) | inconclusive: 20.6 µM [cytotoxic, single point] | 
54 | N#CC(C#N)=C(N)/C(C#N)=C/c1cc(O)c(O)c(O)c1 |  | inactive: 0%
55 | CCN(CC(=O)NCCc1ccc(Cl)cc1)Cc1nc2ccccc2c(=O)[nH]1 | inconclusive: 2.59 µM [rising, partial curve, poor fit] | 
56 | Cc1cccc(OCCSc2nc(N)cc(N)n2)c1 | inconclusive: 29.1 µM [cytotoxic, single point] | 
57 | CC(C)(C)OC(=O)C[C@H]1C/C=C\C[C@H](CC(=O)NCCO)C(=O)NC[C@@H](c2ccccc2)OC1=O |  | inactive: 0.97%
58 | Cc1ccccc1NC(=O)N1CCc2c(sc3c2CCCC3)C1c1ccccc1 (stereo not drawn) | inconclusive: 29.1 µM [cytotoxic, single point] | 
59 | Nc1c(Cl)cc(C2=NCCn3nc4cc(C(F)(F)F)ccc4c32)cc1Cl | inconclusive: 32.6 µM [cytotoxic, single point] | 
60 | O=c1oc(-c2ccc([N+](=O)[O-])cc2)nc2ccc(O)cc12 |  | inactive: 4.98%
61 | CCCN1CCN(c2ncnc3c2nnn3Cc2ccccc2)CC1 | inconclusive: 23.1 µM [cytotoxic, partial curve, poor fit] | 
62 | CC(C)C(c1nnnn1Cc1ccco1)N1CCN(c2nc3ccccc3s2)CC1 (stereo not drawn) | inconclusive: 29.1 µM [cytotoxic, single point] | 
63 | CCC(Cc1ccccc1)NC(=O)CCc1ccccc1 (stereo not drawn) |  | inactive: -9.05%
64 | CCOC(=O)c1sc(=S)n(-c2ccccc2)c1C | inconclusive: 23.1 µM [rising, partial curve] | 
65 | COc1ccc(CC(=O)n2nc(-c3ccc(Cl)cc3)nc2NCc2ccco2)cc1 | inconclusive: 29.1 µM [cytotoxic, single point] | 
66 | O=C(NCCC1=CCCCC1)c1ccc2c(c1)N(Cc1ccccc1)C(=O)CS2 | inconclusive: 18.4 µM [cytotoxic, single point] | 
67 | COc1ccccc1-n1ccnc(SCC(=O)NCc2ccccc2Cl)c1=O |  | inactive: -4.18%
68 | O=C(NCc1ccccn1)C1CC(c2ccc(Cl)c(Cl)c2)=NO1 (stereo not drawn) | inconclusive: 29.1 µM [cytotoxic, single point] | 

Compounds listed so far that have two or more sulfur atoms:
Row | SMILES | Potency | activity change, negative = cytotoxic
24 | O=C(CCNS(=O)(=O)c1ccc(Br)cc1)NCCCSc1ccccc1 | inconclusive: 14.6 µM [cytotoxic, partial curve, poor fit] | 
64 | CCOC(=O)c1sc(=S)n(-c2ccccc2)c1C | inconclusive: 23.1 µM [rising, partial curve] | 
